For one molecule, binding results are on record in patent US20210324011A1 (University of Washington, published 2021).

Results are given in words; binding and its absence hold for the method and conditions named. Some binding calls cover weakened binding; strength is not graded here. Where a sequence is shown, tags or fusion partners need not be part of it.

For the assay, the target named is DHF119_C6_GFP_anchor. Put plainly: TIRF microscopy, biotinylated anchor on glass slide, 1.16 uM DHF119-YFP.

B1: DHF119-YFP (designed binder, not shown: large carriers)
chain: MGPEDELKRVEKLVKEAEALLIVAKIKGSKRDLEKALRTAEEAAREAVKVLVQALLEGDPEVALRAVELVVRVAELLLRIAKESGSREALLRALIVAEEAAKLAKMVLELAEKQGDPEVALRAVELVVRVAELLLRIAKESGSEEALERALRVAEEAARLAKRVLELAEEQGDPLVAKMAVELVKRVAELLERIARESGSEEAKERAERVREEARELQERVKELREREGLE
As for B1, the binding entry is given as “binds”.
